Data on one compound can be found in US11007243B2, “Enzyme-assisted supercritical extraction of nigella sativa seeds” (priority 2016, dated 2021).

The test system of one experiment is IMR-32 cell line. The experiment can be described thus: SRB growth assay on IMR-32 neuronal cell line. Type of experiment: cell-based, human. Particulars: IMR32, SRB assay, tested at 10-80 μg/ml; FIG. 8.
A further experiment relates to U373-MG cell line. The experiment can be described thus: SRB growth assay on U373 MG glial cell line. Format: cell-based, human. Particulars: U373MG, tested at 10-80 μg/ml, FIG. 9.

Structures are written as SMILES.

Consider `COc1cc2c(cc1OC)C(=O)C(CC1CCN(Cc3ccccc3)CC1)C2` (centres unmarked) [Donepezil], for which the figures for the “GI 50 (concentration causing 50% inhibition of cell growth)” value in the experiment on IMR-32 cell line and in the experiment on U373-MG cell line were “no activity” and “have not produced any significant activity”, respectively.
